In assay [1] the target is T1, ubiquitin specific protease 2a (USP2a) (human (endogenous in T24 and TRT-HU1)) (UniProt O75604).
T1 sequence: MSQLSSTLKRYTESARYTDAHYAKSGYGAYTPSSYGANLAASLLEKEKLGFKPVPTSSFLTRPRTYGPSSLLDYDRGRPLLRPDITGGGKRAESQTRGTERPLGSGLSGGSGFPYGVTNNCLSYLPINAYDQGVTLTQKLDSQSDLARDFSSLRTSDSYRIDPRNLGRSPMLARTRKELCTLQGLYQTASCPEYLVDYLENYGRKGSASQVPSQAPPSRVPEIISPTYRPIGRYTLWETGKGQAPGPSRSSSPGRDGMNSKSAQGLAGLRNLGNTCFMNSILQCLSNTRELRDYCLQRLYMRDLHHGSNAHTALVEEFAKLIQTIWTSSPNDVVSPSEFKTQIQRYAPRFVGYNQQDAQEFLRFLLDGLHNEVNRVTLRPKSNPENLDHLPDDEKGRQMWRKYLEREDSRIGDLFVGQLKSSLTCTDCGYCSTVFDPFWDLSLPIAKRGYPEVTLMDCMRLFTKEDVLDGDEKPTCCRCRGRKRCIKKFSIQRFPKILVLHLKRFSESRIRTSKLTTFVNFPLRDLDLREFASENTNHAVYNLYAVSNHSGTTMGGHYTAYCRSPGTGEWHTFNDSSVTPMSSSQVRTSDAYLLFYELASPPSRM
The assay is described as follows: co-IP; exponentially growing, untreated T24 cells; co-IP and western blot with antibodies against USP2a and MDM2.

Sequences of proteins named here, by UniProt entry; tags and fusion partners are left off.
UniProt Q00987: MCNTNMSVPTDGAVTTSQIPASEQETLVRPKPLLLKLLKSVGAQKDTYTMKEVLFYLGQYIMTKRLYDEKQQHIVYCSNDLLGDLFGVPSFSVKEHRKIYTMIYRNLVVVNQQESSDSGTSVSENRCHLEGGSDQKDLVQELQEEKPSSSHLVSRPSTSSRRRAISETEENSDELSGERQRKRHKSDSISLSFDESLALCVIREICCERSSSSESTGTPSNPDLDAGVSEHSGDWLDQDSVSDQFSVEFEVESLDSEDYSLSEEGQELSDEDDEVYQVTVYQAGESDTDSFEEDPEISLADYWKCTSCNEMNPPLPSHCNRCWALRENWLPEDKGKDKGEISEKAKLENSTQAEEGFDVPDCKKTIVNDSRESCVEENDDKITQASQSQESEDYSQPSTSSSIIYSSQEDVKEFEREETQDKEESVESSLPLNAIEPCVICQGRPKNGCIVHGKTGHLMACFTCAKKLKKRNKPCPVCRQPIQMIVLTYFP

Assay [2] has as its target T1, ubiquitin specific protease 2a (USP2a) (human (endogenous in T24 and TRT-HU1)). As to the kind of experiment: co-IP; TRT-HU1 cells in exponential growth, untreated; whole cell lysates, IP with anti-USP2a antibody, western blot with antibodies against USP2a and MDM2; normal mouse IgG as IP control. For orientation: A western blot detects proteins with antibodies after separation by electrophoresis.

Results are given in words; binding and its absence hold for the method and conditions named. Binding seen in cells or lysates may run through a third protein. Some results given as binding are weak or reduced against the parent protein; the word gives no strength.

For the substance “murine double minute 2 E3 ubiquitin ligase (MDM2) (from UniProt Q00987 1-491) (enzyme)”, the binding entry in assay [1] and in assay [2] was “binds” throughout.

These data come from article PMC3516501.
